Structures are written as SMILES. The match of structure and compound is tentative.

Chains of the proteins cited; added tags and fusions are not shown.
UniProt P35236, whole entry: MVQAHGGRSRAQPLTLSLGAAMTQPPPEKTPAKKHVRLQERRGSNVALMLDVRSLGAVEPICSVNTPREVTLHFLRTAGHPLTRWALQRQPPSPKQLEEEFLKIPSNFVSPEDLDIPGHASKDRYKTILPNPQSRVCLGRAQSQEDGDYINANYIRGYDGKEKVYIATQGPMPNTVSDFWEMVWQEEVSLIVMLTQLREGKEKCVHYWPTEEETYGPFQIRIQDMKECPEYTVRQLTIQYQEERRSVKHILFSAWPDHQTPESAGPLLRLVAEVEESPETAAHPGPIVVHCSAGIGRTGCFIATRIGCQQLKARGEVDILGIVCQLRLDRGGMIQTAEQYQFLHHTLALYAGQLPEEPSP

The target of assay [1] is T1, HePTP (Homo sapiens, UniProt P35236). The assay can be described thus: HePTP dose-response confirmation screening. In kind it is biochemical. The following applies: Hill coefficient of the dose-response curve.
Assay [2] deals with T1, HePTP. The assay can be described thus: HePTP HTS primary screen (colorimetric pNPP / Biomol Green). In kind it is biochemical. The following applies: 20 μM compound.

For `O=C(CCSCCC(=O)NCc1ccco1)NCc1ccco1`, in assay [1], the “n / nH (Hill coefficient)” value is recorded as 1.32. Besides, the “% Inhib. at 20 μM” value in assay [2] worked out at 100.6%.

The values are drawn from patent publication US20120095032A1, “METHODS FOR TREATING LEUKEMIA AND MYELODYSPLASTIC SYNDROME, AND METHODS FOR IDENTIFYING AGENTS FOR TREATING SAME” (Sanford-Burnham Medical Research Institute, priority 2007, published 2012).
